Measured values reported in PMC9508553.
Results are given in words; binding and its absence hold for the method and conditions named. In cells and extracts the contact can be indirect. Some results given as binding are weak or reduced against the parent protein; the word gives no strength.

Sequences of proteins named here, by UniProt entry; tags and fusion partners are left off. A change or cut given only in a name is not applied to a line headed by its entry.
UniProt P10961: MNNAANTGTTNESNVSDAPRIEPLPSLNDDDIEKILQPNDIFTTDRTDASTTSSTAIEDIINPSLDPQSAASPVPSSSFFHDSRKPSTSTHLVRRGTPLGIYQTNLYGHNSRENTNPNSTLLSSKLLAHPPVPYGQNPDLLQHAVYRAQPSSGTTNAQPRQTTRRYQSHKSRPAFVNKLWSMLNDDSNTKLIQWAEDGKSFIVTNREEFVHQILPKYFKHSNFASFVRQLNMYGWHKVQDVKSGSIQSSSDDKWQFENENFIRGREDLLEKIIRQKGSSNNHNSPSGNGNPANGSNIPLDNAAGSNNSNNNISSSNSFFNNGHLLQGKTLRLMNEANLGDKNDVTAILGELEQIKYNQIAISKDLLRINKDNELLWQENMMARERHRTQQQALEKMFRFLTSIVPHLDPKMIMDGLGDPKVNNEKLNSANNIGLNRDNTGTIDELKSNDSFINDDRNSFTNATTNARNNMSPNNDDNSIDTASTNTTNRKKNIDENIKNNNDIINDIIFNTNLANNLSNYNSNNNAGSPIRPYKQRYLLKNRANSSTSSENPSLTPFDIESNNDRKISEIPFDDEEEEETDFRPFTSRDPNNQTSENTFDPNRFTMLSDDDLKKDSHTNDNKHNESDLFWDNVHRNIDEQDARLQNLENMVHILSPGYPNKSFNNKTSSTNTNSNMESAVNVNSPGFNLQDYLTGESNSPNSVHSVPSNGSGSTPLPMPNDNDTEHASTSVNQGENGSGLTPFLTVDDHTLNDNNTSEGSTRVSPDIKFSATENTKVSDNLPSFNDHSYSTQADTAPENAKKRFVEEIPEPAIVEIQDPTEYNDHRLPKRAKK
UniProt P10591: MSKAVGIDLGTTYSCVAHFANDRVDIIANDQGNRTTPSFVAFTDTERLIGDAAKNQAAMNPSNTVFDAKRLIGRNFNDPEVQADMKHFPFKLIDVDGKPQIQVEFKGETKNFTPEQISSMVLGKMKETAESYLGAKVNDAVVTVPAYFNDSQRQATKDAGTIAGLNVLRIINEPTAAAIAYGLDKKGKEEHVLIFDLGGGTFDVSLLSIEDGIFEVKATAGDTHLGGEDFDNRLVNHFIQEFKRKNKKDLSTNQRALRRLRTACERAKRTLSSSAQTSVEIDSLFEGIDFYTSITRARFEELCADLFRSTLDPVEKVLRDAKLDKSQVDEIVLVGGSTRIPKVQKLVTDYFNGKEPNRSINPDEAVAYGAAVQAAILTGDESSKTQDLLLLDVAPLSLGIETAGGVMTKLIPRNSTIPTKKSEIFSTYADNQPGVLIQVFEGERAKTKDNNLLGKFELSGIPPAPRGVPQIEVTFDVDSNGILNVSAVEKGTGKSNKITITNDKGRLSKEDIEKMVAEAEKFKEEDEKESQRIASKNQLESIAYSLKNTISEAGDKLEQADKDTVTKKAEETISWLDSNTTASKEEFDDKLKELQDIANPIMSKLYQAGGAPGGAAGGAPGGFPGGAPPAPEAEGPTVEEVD

Target: Hsf1-GFP-FLAG (S. cerevisiae) (UniProt P10961)
Assay: co-IP; total yeast lysate on anti-FLAG M2 affinity gel, TEGN buffer (20 mM Tris-HCl pH 7.9, 0.5 mM EDTA, 10% glycerol, 50 mM NaCl), 2 h at 4 °C, eight washes, elution with FLAG peptide; immunoblot for Ssa1

**Q.** For “Ssa1-2CS (C264S, C303S), expressed in yeast (from UniProt P10591 1-642)”, which binding is on record?
**A.** binds

**Q.** With “Ssa1-2CD (C264D, C303D), expressed in yeast (from UniProt P10591 1-642)” as the substance, how does the binding read?
**A.** no binding

**Q.** For “Ssa1 (WT), expressed in yeast (from UniProt P10591 1-642)”, which binding is on record?
**A.** binds
